Measurements: paper PMC10750294

Amino acid sequences for entries named in this document (tags omitted).
UniProt P06748: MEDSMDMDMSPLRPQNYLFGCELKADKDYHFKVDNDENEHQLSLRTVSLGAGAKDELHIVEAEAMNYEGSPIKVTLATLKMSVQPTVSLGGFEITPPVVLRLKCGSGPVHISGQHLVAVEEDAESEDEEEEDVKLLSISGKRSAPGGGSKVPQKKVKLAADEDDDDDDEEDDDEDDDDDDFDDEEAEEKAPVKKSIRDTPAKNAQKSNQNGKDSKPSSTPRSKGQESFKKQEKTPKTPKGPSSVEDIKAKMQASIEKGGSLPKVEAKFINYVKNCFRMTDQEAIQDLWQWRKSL

Biological target: T1, Mesencephalic astrocyte-derived neurotrophic factor (MANF) (human (endogenous in villi tissue of patients)) (UniProt P55145)
T1 sequence: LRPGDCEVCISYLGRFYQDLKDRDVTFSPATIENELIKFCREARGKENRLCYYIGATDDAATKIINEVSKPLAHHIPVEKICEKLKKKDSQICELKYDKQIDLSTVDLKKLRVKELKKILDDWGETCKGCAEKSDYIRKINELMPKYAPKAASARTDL
Test: affinity purification with mass spectrometry; co-IP with the MANF antibody from villi of the URM group, SDS-PAGE, rapid silver staining, excised bands analysed by LC-MS/MS

binding: binds
Substance: Nucleophosmin 1 (NPM1) (from UniProt P06748 1-294)

Results are given in words; binding and its absence hold for the method and conditions named. In cells and extracts the contact can be indirect. These calls come from enrichment with a bait or labelling near it, and not all partners need be listed.
